{
  "source": "the supplement of paper PMC5949888",
  "note": "Most values lie at the floor of the assay. Slopes are relative: functional sequences can read slightly below zero.",
  "data": [
    {"system": "Saccharomyces cerevisiae PS128 hsf1 delta, HSF1(1-493) fusion", "test": "growth estimate (transactivation domain function in HSF1 fusion, heat-shock survival) (a.u. (slope of normalised read count over time)); higher = stronger growth at 37°C, i.e. more transactivation activity", "conditions": "library: random library", "values": [
      {"substance": "LVCGTDWRGVSRPVGRL", "growth estimate": "< -0.25"},
      {"substance": "LVCTRATLRVKGVDPVPIGP", "growth estimate": "< -0.25"},
      {"substance": "LVCVLTHVDRGIVYYKIFLR", "growth estimate": "< -0.25"},
      {"substance": "LVCYLMPLTDRPAVVDPGLR", "growth estimate": "< -0.25"},
      {"substance": "LVDAVASNVFSA", "growth estimate": "< -0.25"},
      {"substance": "LVDFRQARWAQYDASWPLWA", "growth estimate": -0.2},
      {"substance": "LVDGRCTGGI", "growth estimate": "< -0.25"},
      {"substance": "LVES", "growth estimate": "< -0.25"},
      {"substance": "LVFGYECPWFAPGMMPRHLP", "growth estimate": "< -0.25"},
      {"substance": "LVGMLESVCGWCSQVESRVG", "growth estimate": "< -0.25"},
      {"substance": "LVGRNLKDVTLRQR", "growth estimate": -0.245},
      {"substance": "LVGRVVKRFWQIF", "growth estimate": "< -0.25"},
      {"substance": "LVGYGLRPLQFAICGTPRSR", "growth estimate": "< -0.25"},
      {"substance": "LVGYRHSILFTFLANRCIRA", "growth estimate": "< -0.25"},
      {"substance": "LVHRQIPITAGWVHSQSTRP", "growth estimate": "< -0.25"},
      {"substance": "LVI", "growth estimate": -0.248},
      {"substance": "LVIDHTYAGLTLESDSCMKH", "growth estimate": "< -0.25"},
      {"substance": "LVINSKNVRLNRGYARSEGL", "growth estimate": "< -0.25"},
      {"substance": "LVIVT", "growth estimate": "< -0.25"},
      {"substance": "LVKMPFDGN", "growth estimate": "< -0.25"},
      {"substance": "LVKPCQCRRHPGRTYWCRHR", "growth estimate": "< -0.25"},
      {"substance": "LVKSAL", "growth estimate": "< -0.25"},
      {"substance": "LVKYS", "growth estimate": "< -0.25"},
      {"substance": "LVLGKLFLYGRSRHLQSLRC", "growth estimate": "< -0.25"},
      {"substance": "LVLGLSARA", "growth estimate": "< -0.25"},
      {"substance": "LVLLTTGRTNL", "growth estimate": "< -0.25"},
      {"substance": "LVLPTFSVC", "growth estimate": "< -0.25"},
      {"substance": "LVLQRR", "growth estimate": "< -0.25"},
      {"substance": "LVLRAYSVLDSRGMAGAQSS", "growth estimate": "< -0.25"},
      {"substance": "LVLSRYAVKPRASA", "growth estimate": "< -0.25"},
      {"substance": "LVLTNSCGQYLE", "growth estimate": "< -0.25"},
      {"substance": "LVLVLRKGGGLSEP", "growth estimate": "< -0.25"},
      {"substance": "LVMDKTYSPRECMGFSSGRW", "growth estimate": "< -0.25"},
      {"substance": "LVMTIGHAIADPNYSGHARM", "growth estimate": "< -0.25"},
      {"substance": "LVNGASDNILGQLHIEVRRL", "growth estimate": "< -0.25"},
      {"substance": "LVNLLRNLERRCTPGSRSGL", "growth estimate": "< -0.25"},
      {"substance": "LVPGVKDCAIDRAWLCCW", "growth estimate": "< -0.25"},
      {"substance": "LVPLRH", "growth estimate": "< -0.25"},
      {"substance": "LVPPEGIRWEGMTSIIIARM", "growth estimate": "< -0.25"},
      {"substance": "LVPQFC", "growth estimate": "< -0.25"},
      {"substance": "LVPSVEMS", "growth estimate": "< -0.25"},
      {"substance": "LVPT", "growth estimate": "< -0.25"},
      {"substance": "LVQEL", "growth estimate": -0.241},
      {"substance": "LVQERSVNKHGNVVV", "growth estimate": "< -0.25"},
      {"substance": "LVQRNNTWTLCVSGSSAYHS", "growth estimate": "< -0.25"},
      {"substance": "LVQTYDAPIVTTEN", "growth estimate": "< -0.25"},
      {"substance": "LVRAGSRERCK", "growth estimate": "< -0.25"},
      {"substance": "LVRGMATQWYVFGVVGPL", "growth estimate": "< -0.25"},
      {"substance": "LVRLRHIRSRRSRGSSLLPH", "growth estimate": "< -0.25"},
      {"substance": "LVRLRSPGSVRELNTAVNQA", "growth estimate": "< -0.25"},
      {"substance": "LVRNGGRPCTRHGMERRTPL", "growth estimate": -0.151},
      {"substance": "LVRVVIIELGVRGSGAHNTG", "growth estimate": "< -0.25"},
      {"substance": "LVSFGRVVGIWKSNVWPGRR", "growth estimate": "< -0.25"},
      {"substance": "LVSLRGRHSR", "growth estimate": "< -0.25"},
      {"substance": "LVSRRHCQIPDLWASGACGG", "growth estimate": "< -0.25"},
      {"substance": "LVSTRTSNVSHATSVS", "growth estimate": "< -0.25"},
      {"substance": "LVTLQPRQTYDQKTTVPARN", "growth estimate": "< -0.25"},
      {"substance": "LVTLVTVPLEGMARTSGVYE", "growth estimate": "< -0.25"},
      {"substance": "LVTNIIVWMLGCDSGANTSV", "growth estimate": "< -0.25"},
      {"substance": "LVTRLNHRFRDLVHRDFVAL", "growth estimate": "< -0.25"},
      {"substance": "LVTSEEARMKETPQVVVG", "growth estimate": -0.25},
      {"substance": "LVTTFAQVLKRGFLHSSLLL", "growth estimate": "< -0.25"},
      {"substance": "LVVARDGVVRTKSKFMGLRD", "growth estimate": "< -0.25"},
      {"substance": "LVVNKLPLPRAEGRRYHDGR", "growth estimate": "< -0.25"},
      {"substance": "LVVPFCAGEVYTQYRQLLHT", "growth estimate": "< -0.25"},
      {"substance": "LVVQLECGASTLDEHNFSVR", "growth estimate": "< -0.25"},
      {"substance": "LVVRVLRRDPLFRMVTPFTE", "growth estimate": "< -0.25"},
      {"substance": "LVVSVIMQPNLGTSLFKT", "growth estimate": "< -0.25"},
      {"substance": "LVWGIYRGGFKLRVP", "growth estimate": "< -0.25"},
      {"substance": "LVWLKYYRLQQGILRVTEGR", "growth estimate": -0.245},
      {"substance": "LVYCL", "growth estimate": "< -0.25"},
      {"substance": "LVYQL", "growth estimate": "< -0.25"},
      {"substance": "LWCVA", "growth estimate": "< -0.25"},
      {"substance": "LWDSRFTRGRRNALSQVR", "growth estimate": "< -0.25"},
      {"substance": "LWGLSGGVTWLQPANIWPLM", "growth estimate": "< -0.25"},
      {"substance": "LWGPIHVGVIRRPELYWV", "growth estimate": -0.231},
      {"substance": "LWGTPQ", "growth estimate": -0.243},
      {"substance": "LWLLVHYRFRF", "growth estimate": "< -0.25"},
      {"substance": "LWP", "growth estimate": "< -0.25"},
      {"substance": "LWPTEIRVQ", "growth estimate": "< -0.25"},
      {"substance": "LWPYCEAYHISVPSLCHVSP", "growth estimate": "< -0.25"},
      {"substance": "LWREREGMVSSTLHV", "growth estimate": "< -0.25"},
      {"substance": "LWRYSPCASGILFLIPTGFA", "growth estimate": "< -0.25"},
      {"substance": "LWS", "growth estimate": "< -0.25"},
      {"substance": "LWSETRMDVREETVFGKLRS", "growth estimate": "< -0.25"},
      {"substance": "LWSGCCRCTIGGAQLSIYVH", "growth estimate": "< -0.25"},
      {"substance": "LWSGCFSYGESACAPAPWEV", "growth estimate": "< -0.25"},
      {"substance": "LWSRGGRSWAICSECVRQPS", "growth estimate": "< -0.25"},
      {"substance": "LWVTPWSPASQTTEGPGTAM", "growth estimate": "< -0.25"},
      {"substance": "LWVVPETQ", "growth estimate": "< -0.25"},
      {"substance": "LYA", "growth estimate": "< -0.25"},
      {"substance": "LYCVGVTVTWS", "growth estimate": "< -0.25"},
      {"substance": "LYDGRVCESHLGSHGSIFFT", "growth estimate": "< -0.25"},
      {"substance": "LYDSRDTSICDCRPLTPTPP", "growth estimate": "< -0.25"},
      {"substance": "LYEFTALERRYSGDASDDAC", "growth estimate": "< -0.25"},
      {"substance": "LYFRHSVIRKIFNNSRRIGH", "growth estimate": "< -0.25"},
      {"substance": "LYFVRLTLHVRD", "growth estimate": "< -0.25"},
      {"substance": "LYGIYINPVGLRNKRQTVGR", "growth estimate": "< -0.25"}
    ]}
  ]
}
